PubChem BioAssay AID1259405 – NCATS, 2018
The whole screen tested about 50,000 reagents; below is an unselected part. Over the whole deposit, about 4,000 (8%) are marked active. 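Mouse siRNA library applied to hamster cells; one well for each siRNA.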 Reagents against one gene are numbered here. No sequences are given here.

Assay: 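Silenced genes that increase secreted GFP made by CHO cells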 (primary screen)
System: Chinese hamster CHO-K1 ovary cells with stable secreted eGFP expression
Reagents: single siRNA against mouse genes, 0.8 pmol siRNA per well (2 µl of 400 nM stock)
Timing: 3 days
Detection: 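Per-well intracellular GFP measured by laser scanning cytometry, plus viability from ATP luminescence, each relative to plate median of non-targeting control wells, in %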
Direction: GFP, % of control: higher = more GFP per well, higher productivity; viability (ATP), % of control: higher = more viable cells (more ATP)
Hit rule: 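Called active when intracellular GFP, relative to negative control, is at or above 120%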

Adissp #1 → GFP, % of control = 91.9; viability (ATP), % of control = 97.9; outcome = inactive
Adissp #2 → GFP, % of control = 99; viability (ATP), % of control = 77.5; outcome = inactive
Adissp #3 → GFP, % of control = 97.5; viability (ATP), % of control = 68.9; outcome = inactive
1700010H22Rik #1 → GFP, % of control = 74.5; viability (ATP), % of control = 75.6; outcome = inactive
1700010H22Rik #2 → GFP, % of control = 69.8; viability (ATP), % of control = 80.8; outcome = inactive
1700010H22Rik #3 → GFP, % of control = 76.5; viability (ATP), % of control = 60; outcome = inactive
Immp1l #1 → GFP, % of control = 97.9; viability (ATP), % of control = 138; outcome = inactive
Immp1l #2 → GFP, % of control = 132; viability (ATP), % of control = 104; outcome = active
Immp1l #3 → GFP, % of control = 86.1; viability (ATP), % of control = 97.6; outcome = inactive
Fsd2 #1 → GFP, % of control = 86.3; viability (ATP), % of control = 69.3; outcome = inactive
Fsd2 #2 → GFP, % of control = 44.9; viability (ATP), % of control = 59.4; outcome = inactive
Fsd2 #3 → GFP, % of control = 86.8; viability (ATP), % of control = 74.1; outcome = inactive
Pdzd7 #1 → GFP, % of control = 90.8; viability (ATP), % of control = 78.4; outcome = inactive
Pdzd7 #2 → GFP, % of control = 81.5; viability (ATP), % of control = 96; outcome = inactive
Pdzd7 #3 → GFP, % of control = 91; viability (ATP), % of control = 100; outcome = inactive
Pick1 #1 → GFP, % of control = 52.1; viability (ATP), % of control = 60.9; outcome = inactive
Pick1 #2 → GFP, % of control = 80.6; viability (ATP), % of control = 67.8; outcome = inactive
Lyn → GFP, % of control = 75.6; viability (ATP), % of control = 42.7; outcome = inactive
Mbd2 #1 → GFP, % of control = 52.7; viability (ATP), % of control = 83.2; outcome = inactive
Mbd2 #2 → GFP, % of control = 66.5; viability (ATP), % of control = 58.7; outcome = inactive
Mbd2 #3 → GFP, % of control = 51; viability (ATP), % of control = 72.6; outcome = inactive
Orm1 #1 → GFP, % of control = 93.3; viability (ATP), % of control = 42.1; outcome = inactive
Orm1 #2 → GFP, % of control = 36; viability (ATP), % of control = 94.7; outcome = inactive
Orm1 #3 → GFP, % of control = 72.5; viability (ATP), % of control = 71.2; outcome = inactive
Dnm3 #1 → GFP, % of control = 85.7; viability (ATP), % of control = 97; outcome = inactive
Dnm3 #2 → GFP, % of control = 99.1; viability (ATP), % of control = 79.8; outcome = inactive
Tnpo1 #1 → GFP, % of control = 45.2; viability (ATP), % of control = 52.5; outcome = inactive
Tnpo1 #2 → GFP, % of control = 85.7; viability (ATP), % of control = 108; outcome = inactive
Tnpo1 #3 → GFP, % of control = 65.9; viability (ATP), % of control = 60.4; outcome = inactive
Nat8f5 #1 → GFP, % of control = 97.8; viability (ATP), % of control = 81.8; outcome = inactive
Nat8f5 #2 → GFP, % of control = 84.6; viability (ATP), % of control = 74; outcome = inactive
Nat8f5 #3 → GFP, % of control = 73.7; viability (ATP), % of control = 51.6; outcome = inactive
Cnst #1 → GFP, % of control = 85.1; viability (ATP), % of control = 73.7; outcome = inactive
Cnst #2 → GFP, % of control = 83; viability (ATP), % of control = 74.5; outcome = inactive
Cnst #3 → GFP, % of control = 77.6; viability (ATP), % of control = 72.8; outcome = inactive
Mcee #1 → GFP, % of control = 103; viability (ATP), % of control = 79.4; outcome = inactive
Mcee #2 → GFP, % of control = 89.6; viability (ATP), % of control = 93.3; outcome = inactive
Mcee #3 → GFP, % of control = 39.2; viability (ATP), % of control = 37.8; outcome = inactive
Xtbd1 #1 → GFP, % of control = 71.7; viability (ATP), % of control = 67.3; outcome = inactive
Xtbd1 #2 → GFP, % of control = 90.5; viability (ATP), % of control = 81.1; outcome = inactive
Xtbd1 #3 → GFP, % of control = 82.5; viability (ATP), % of control = 82.9; outcome = inactive

Called active, among the entries above:
Immp1l #2 → GFP, % of control = 132; viability (ATP), % of control = 104; outcome = active
